The source of these data is article doi:10.1101/120204.

The chains behind the UniProt entries cited, without tags or fusion partners. Residues count along the entry.
UniProt P11362, residues 22-822: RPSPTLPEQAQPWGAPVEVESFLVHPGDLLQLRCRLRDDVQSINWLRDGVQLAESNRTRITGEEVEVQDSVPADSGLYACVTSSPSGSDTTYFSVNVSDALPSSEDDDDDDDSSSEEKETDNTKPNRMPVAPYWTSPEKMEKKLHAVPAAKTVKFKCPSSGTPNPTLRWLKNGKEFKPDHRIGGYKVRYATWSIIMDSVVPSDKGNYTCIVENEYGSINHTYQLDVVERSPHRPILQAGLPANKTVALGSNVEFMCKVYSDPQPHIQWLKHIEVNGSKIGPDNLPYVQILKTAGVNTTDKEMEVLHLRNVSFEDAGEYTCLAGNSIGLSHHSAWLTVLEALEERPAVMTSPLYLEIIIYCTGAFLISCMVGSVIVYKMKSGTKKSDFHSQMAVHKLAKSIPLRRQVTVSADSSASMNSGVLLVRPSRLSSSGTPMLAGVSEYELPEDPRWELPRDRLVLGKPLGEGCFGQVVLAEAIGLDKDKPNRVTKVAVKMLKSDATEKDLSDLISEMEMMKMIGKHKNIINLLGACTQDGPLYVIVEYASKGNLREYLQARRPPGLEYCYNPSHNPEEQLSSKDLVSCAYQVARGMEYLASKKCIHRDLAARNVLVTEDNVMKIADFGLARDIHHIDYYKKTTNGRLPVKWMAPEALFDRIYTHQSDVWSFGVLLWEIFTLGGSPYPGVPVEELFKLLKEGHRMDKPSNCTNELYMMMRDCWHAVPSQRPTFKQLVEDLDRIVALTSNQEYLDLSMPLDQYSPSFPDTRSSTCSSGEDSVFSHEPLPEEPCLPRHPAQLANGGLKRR
UniProt O95067: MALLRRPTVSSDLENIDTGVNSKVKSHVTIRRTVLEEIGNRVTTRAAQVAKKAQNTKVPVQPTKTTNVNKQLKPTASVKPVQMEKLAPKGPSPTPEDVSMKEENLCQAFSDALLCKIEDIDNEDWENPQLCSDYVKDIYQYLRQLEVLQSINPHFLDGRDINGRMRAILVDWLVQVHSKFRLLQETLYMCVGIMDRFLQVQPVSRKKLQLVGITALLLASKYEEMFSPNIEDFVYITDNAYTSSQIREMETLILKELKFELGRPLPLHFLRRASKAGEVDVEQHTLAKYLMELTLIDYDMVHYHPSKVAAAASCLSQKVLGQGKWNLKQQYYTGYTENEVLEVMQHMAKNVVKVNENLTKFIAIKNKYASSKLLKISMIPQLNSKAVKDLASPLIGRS
UniProt P24864: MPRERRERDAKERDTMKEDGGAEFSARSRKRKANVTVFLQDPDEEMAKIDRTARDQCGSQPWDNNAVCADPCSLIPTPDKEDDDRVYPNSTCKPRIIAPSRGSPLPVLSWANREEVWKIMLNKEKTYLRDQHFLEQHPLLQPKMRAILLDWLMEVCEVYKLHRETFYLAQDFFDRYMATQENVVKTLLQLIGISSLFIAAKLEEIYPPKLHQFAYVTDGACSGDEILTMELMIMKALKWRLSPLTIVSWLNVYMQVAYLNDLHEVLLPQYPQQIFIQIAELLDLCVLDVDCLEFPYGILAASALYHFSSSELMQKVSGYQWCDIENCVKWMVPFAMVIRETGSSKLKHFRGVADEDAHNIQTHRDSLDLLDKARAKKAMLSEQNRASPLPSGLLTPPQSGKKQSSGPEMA

The target of experiment [1] is FGFR1 fused to BirA* (FGFR1-BirA*), with a C-terminal HA tag (human) (UniProt P11362). Description: proximity labelling.
The target is the same in experiment [2]. Description: proximity labelling. This is another data set of the same source.

Like-named read-outs stand apart in the source and are kept apart here. Results are given in words; binding and its absence hold for the method and conditions named. Binding seen in cells or lysates may run through a third protein. Here binding means that the protein was enriched with, or labelled near, the bait; the list need not be complete.

Regarding CCNB2 (from UniProt O95067 1-398), the binding entry in experiment [1] is on record as “binds”.

With CCNE1 (from UniProt P24864 1-410), the binding result in experiment [1] is reported as “binds”.

B1: SHC4 (protein, UniProt Q6S5L8 1-630)
chain: MRERGQDSLAGLVLYVGLFGHPGMLHRAKYSRFRNESITSLDEGSSGGSVGNKGSPQPPHPALAPHLPTEDATLPSQESPTPLCTLIPRMASMKLANPATLLSLKNFCLGTKEVPRLKLQESRDPGSSGPSSPETSLSRSGTAPPPQQDLVGHRATALTPDSCPLPGPGEPTLRSRQDRHFLQHLLGMGMNYCVRYMGCVEVLQSMRSLDFGMRTQVTREAISRLCEAVPGANGAIKKRKPPVKFLSTVLGKSNLQFSGMNIKLTISTCSLTLMNLDNQQIIANHHMQSISFASGGDPDTTDYVAYVAKDPVNQRACHILECHNGMAQDVISTIGQAFELRFKQYLKNPSLNTSCESEEVHIDSHAEEREDHEYYNEIPGKQPPVGGVSDMRIKVQATEQMAYCPIQCEKLCYLPGNSKCSSVYENCLEQSRAIGNVHPRGVQSQRDTSLLKHTCRVDLFDDPCYINTQALQSTPGSAGNQRSAQPLGSPWHCGKAPETVQPGATAQPASSHSLPHIKQQLWSEECYHGKLSRKAAESLLVKDGDFLVRESATSPGQYVLSGLQGGQAKHLLLVDPEGKVRTKDHVFDNVGHLIRYHMDNSLPIISSGSEVSLKQPVRKDNNPALLHSNK
In the case of B1, the binding result in experiment [2] was “binds”.

B2: FGFR substrate 2 (FRS2) (protein, UniProt Q8WU20 1-508)
chain: MGSCCSCPDKDTVPDNHRNKFKVINVDDDGNELGSGIMELTDTELILYTRKRDSVKWHYLCLRRYGYDSNLFSFESGRRCQTGQGIFAFKCARAEELFNMLQEIMQNNSINVVEEPVVERNNHQTELEVPRTPRTPTTPGFAAQNLPNGYPRYPSFGDASSHPSSRHPSVGSARLPSVGEESTHPLLVAEEQVHTYVNTTGVQEERKNRTSVHVPLEARVSNAESSTPKEEPSSIEDRDPQILLEPEGVKFVLGPTPVQKQLMEKEKLEQLGRDQVSGSGANNTEWDTGYDSDERRDAPSVNKLVYENINGLSIPSASGVRRGRLTSTSTSDTQNINNSAQRRTALLNYENLPSLPPVWEARKLSRDEDDNLGPKTPSLNGYHNNLDPMHNYVNTENVTVPASAHKIEYSRRRDCTPTVFNFDIRRPSLEHRQLNYIQVDLEGGSDSDNPQTPKTPTTPLPQTPTRRTELYAVIDIERTAAMSNLQKALPRDDGTSRKTRHNSTDLPM
B2: the binding entry in experiment [2] is on record as “binds”.
